Results as given in paper PMC10834545.
No constants are given. Whether binding was seen depends on the method and setting. In cells and extracts the contact can be indirect. Binding calls can cover weak binding; strength is not graded here. Tags and fused reporters may be left off the sequences shown.

Chains of the proteins cited; added tags and fusions are not shown. Lines headed by an entry give the natural chain unless they say otherwise; changes in a name come on top.
UniProt P01106: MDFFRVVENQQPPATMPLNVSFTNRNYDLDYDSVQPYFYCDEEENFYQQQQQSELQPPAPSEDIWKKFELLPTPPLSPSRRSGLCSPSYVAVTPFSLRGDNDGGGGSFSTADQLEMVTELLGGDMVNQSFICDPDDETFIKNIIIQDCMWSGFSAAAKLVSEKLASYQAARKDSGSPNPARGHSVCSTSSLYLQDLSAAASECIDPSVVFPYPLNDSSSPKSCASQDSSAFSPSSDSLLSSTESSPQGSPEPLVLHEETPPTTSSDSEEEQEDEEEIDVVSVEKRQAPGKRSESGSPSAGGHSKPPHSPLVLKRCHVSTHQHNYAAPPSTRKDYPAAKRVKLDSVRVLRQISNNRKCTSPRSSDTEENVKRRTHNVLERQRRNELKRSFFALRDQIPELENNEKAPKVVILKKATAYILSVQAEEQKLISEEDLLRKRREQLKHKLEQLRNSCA

How the values were obtained:
[1] = molecular target: HA-c-Myc-(204–295aa) deletion (human) (UniProt P01106); assay: co-IP; HCT116 cells transfected with plasmids of HA-c-Myc full-length or deletion constructs; IP with anti-HA antibody, western blotting
[2] = molecular target: HA-c-Myc-(413–434aa) deletion (human) (UniProt P01106); assay: as above

binding [1]: binds | binding [2]: binds
B1: FSTL3 protein found with HA-c-Myc constructs in HCT116 cells (protein, UniProt O95633 27-263)
chain: MGSGNPAPGGVCWLQQGQEATCSLVLQTDVTRAECCASGNIDTAWSNLTHPGNKINLLGFLGLVHCLPCKDSCDGVECGPGKACRMLGGRPRCECAPDCSGLPARLQVCGSDGATYRDECELRAARCRGHPDLSVMYRGRCRKSCEHVVCPRPQSCVVDQTGSAHCVVCRAAPCPVPSSPGQELCGNNNVTYISSCHMRQATCFLGRSIGVRHAGSCAGTPEEPPGGESAEEEENFV
